In all, about 220,000 compounds went through this assay and about 770 (0.35%) were called active. Inconclusive means that the source gave no clear call. Such entries were picked first, then a sample of the others. No stated cut-off is given here; in the data, active means binding response below about 49% or above about 150%; inconclusive means no clear call, values can overlap the other calls; inactive means in between.
Molecular target: Guanine nucleotide-binding protein G(o) subunit alpha (Homo sapiens) (UniProt P09471)
Assay: RGS7-Galphao binding modulators, primary screen, biochemical, multiplexed bead flow cytometry (AID 1439);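 further: fluorescent Galphao held in activated GDP-AlF4 state binding bead-coupled RGS7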
Conditions: at 10 µM, actives lie on both sides

Protein sequences, listed by entry. Tags and fused reporters are not part of them.
UniProt P09471, whole entry, looked up: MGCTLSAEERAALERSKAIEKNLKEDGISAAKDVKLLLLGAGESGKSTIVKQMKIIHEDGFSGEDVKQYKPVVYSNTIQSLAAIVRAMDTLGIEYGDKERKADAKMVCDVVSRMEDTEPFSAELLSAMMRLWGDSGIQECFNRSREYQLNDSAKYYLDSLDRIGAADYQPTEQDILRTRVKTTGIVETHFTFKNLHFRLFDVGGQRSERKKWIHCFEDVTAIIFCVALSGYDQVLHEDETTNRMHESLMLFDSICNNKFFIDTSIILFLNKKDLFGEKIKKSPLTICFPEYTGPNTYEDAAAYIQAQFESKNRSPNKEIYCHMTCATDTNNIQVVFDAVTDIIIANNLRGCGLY

**Q.** With `N/C(CC(=O)Nc1cc(C(F)(F)F)ccc1Cl)=N\O` as the compound, how does the binding response (% of control) read?
**A.** inconclusive: 87.2%

**Q.** Which binding response (% of control) does the source give for `Cc1cccc(C(=O)n2c(=S)nc3cc(C)ccn32)c1` here?
**A.** inconclusive: 87.3%

**Q.** How did the binding response (% of control) turn out when `CCOC(=O)c1nn(-c2ccccc2)cc1O` was run?
**A.** inconclusive: 98.4%

**Q.** For `Cc1ccc(-n2nnnc2SCC(=O)N2Cc3ccccc3CC2C(=O)O)cc1` (stereo unspecified), which binding response (% of control) is on record?
**A.** inconclusive: 111%

**Q.** With `CC(=O)NC(C)c1ccc(Cl)c(Cl)c1` (stereo unspecified) as the compound, how does the binding response (% of control) read?
**A.** inactive: 133%

**Q.** Which binding response (% of control) does the source give for `COC(=O)c1c(NC(=O)COC(=O)CCS(=O)(=O)c2ccc(C)cc2)sc(C)c1C` here?
**A.** inactive: 83.1%

**Q.** Which binding response (% of control) does the source give for `Cc1cc(C)n2ncc(C(=O)O)c2n1` here?
**A.** inactive: 96.4%

**Q.** How did the binding response (% of control) turn out when `Cc1c(NC(=O)Nc2c(Cl)cccc2Cl)c(=O)n(-c2ccccc2)n1C` was run?
**A.** inconclusive: 126%

**Q.** `Cc1ccc2nc(-c3ccc4c(c3)OCCO4)cn2c1` was tested. Which binding response (% of control) did it give?
**A.** inconclusive: 90.4%

**Q.** How did the binding response (% of control) turn out when `COc1ccccc1OCCOCCOc1c(C)cc(C)cc1Br` was run?
**A.** inactive: 106%

**Q.** For `Cc1cc(C(=O)N/N=C/C(Cl)=C/c2ccccc2)c(C)o1`, which binding response (% of control) is on record?
**A.** inconclusive: 111%

**Q.** With `Cc1noc(C)c1COc1ccc(C(=O)OCC(N)=O)cc1` as the compound, how does the binding response (% of control) read?
**A.** inconclusive: 99.3%

**Q.** For `COc1ccc(Cc2noc(CN3CCCC(C(=O)c4cccs4)C3)n2)cc1OC` (stereo unspecified), which binding response (% of control) is on record?
**A.** inactive: 99.3%

**Q.** How did the binding response (% of control) turn out when `CCN(CC)C(=O)c1ccc2c3c(cccc13)C(=O)N(CCc1ccc(OC)c(OC)c1)C2=O` was run?
**A.** inactive: 104%

**Q.** How did the binding response (% of control) turn out when `Cc1cc(C)cc(NC(=O)CCC(=O)Nc2nnc(C(F)(F)F)s2)c1` was run?
**A.** inconclusive: 108%

**Q.** For `O=C(N/C(=C/c1ccco1)C(=O)N1CCc2ccccc21)c1ccco1`, which binding response (% of control) is on record?
**A.** inconclusive: 110%

**Q.** With `COc1ccc(Cn2cc([N+](=O)[O-])nc2C)cc1[N+](=O)[O-]` as the compound, how does the binding response (% of control) read?
**A.** inconclusive: 112%

**Q.** With `COc1cccc(CC2(CO)CCCN(Cc3ccc4c(c3)OCCO4)C2)c1` (stereo unspecified) as the compound, how does the binding response (% of control) read?
**A.** inactive: 67.2%

**Q.** Which binding response (% of control) does the source give for `Cc1nn(CCCC(=O)Nc2c(F)cc(F)cc2Br)c(C)c1[N+](=O)[O-]` here?
**A.** inactive: 97.3%

**Q.** How did the binding response (% of control) turn out when `CSc1nc2ccccc2c(=O)n1Cc1ccc(F)cc1` was run?
**A.** inconclusive: 89%

**Q.** How did the binding response (% of control) turn out when `Oc1ccc(Br)cc1/C=N/N1CCN(Cc2cccc3ccccc23)CC1` was run?
**A.** inconclusive: 117%

**Q.** Which binding response (% of control) does the source give for `S=c1[nH]nc(Cn2cnc3ccccc32)n1-c1ccccc1Cl` here?
**A.** inconclusive: 154%

**Q.** With `COc1cc(OC)c2ccc(=O)oc2c1C(CC(=O)N1CCCC(C)C1)c1ccc2c(c1)OCO2` (stereo unspecified) as the compound, how does the binding response (% of control) read?
**A.** inconclusive: 101%

**Q.** For `O=C(O)C1C2CCCCC2=C2CCCCC2C1C(=O)c1ccccc1` (stereo unspecified), which binding response (% of control) is on record?
**A.** inconclusive: 86.4%

**Q.** How did the binding response (% of control) turn out when `O=c1[nH]nc(CNc2ccc(C(F)(F)F)cc2)c2ccccc12` was run?
**A.** inconclusive: 104%

**Q.** `O=C(CN1C(=O)C2CC=CCC2C1=O)Nc1nc2ccc(F)cc2s1` (stereo unspecified) was tested. Which binding response (% of control) did it give?
**A.** inconclusive: 81.4%

**Q.** How did the binding response (% of control) turn out when `O=C(NCc1cccs1)c1cc(-c2ccncc2)nc2ccc(Br)cc12` was run?
**A.** inconclusive: 103%

**Q.** How did the binding response (% of control) turn out when `Nc1ccc2nc(-c3ccc(N)c(Cl)c3)[nH]c2c1` was run?
**A.** inactive: 101%

**Q.** Which binding response (% of control) does the source give for `O=C(Nc1ccc(S(=O)(=O)Nc2ncccn2)cc1)c1nn(Cc2ccccc2)c(=O)c2ccccc12` here?
**A.** inconclusive: 99.5%

**Q.** With `COc1ccccc1C(=O)COC(=O)c1ccccc1O` as the compound, how does the binding response (% of control) read?
**A.** inconclusive: 91.4%

**Q.** How did the binding response (% of control) turn out when `COc1cccc(CN2CCN(c3nc4nonc4nc3NC3CC3)CC2)c1` was run?
**A.** inactive: 102%

**Q.** With `COc1ccc(CN(C)CC(=O)Nc2ccccc2-c2ccccc2)c(OC)c1` as the compound, how does the binding response (% of control) read?
**A.** inconclusive: 86.8%

**Q.** How did the binding response (% of control) turn out when `COc1ccccc1N(C)S(=O)(=O)c1ccc(C(=O)NC(C)c2ccccc2)cc1` (stereo unspecified) was run?
**A.** inconclusive: 94.2%

**Q.** Which binding response (% of control) does the source give for `COc1cc(CCCN2C(N)=NC[C@@H]2c2ccccc2)cc(OC)c1OC` here?
**A.** inconclusive: 109%

**Q.** Which binding response (% of control) does the source give for `N#C/C(=C\c1c[nH]c2ccccc12)C(=O)NCC1CCCO1` (stereo unspecified) here?
**A.** inactive: 102%

**Q.** How did the binding response (% of control) turn out when `O=C(c1ccc(-n2cccc2)cc1)N1CCCCC1` was run?
**A.** inconclusive: 97.7%

**Q.** Which binding response (% of control) does the source give for `Cc1ccc([N+](=O)[O-])cc1NC(=O)c1ccoc1C` here?
**A.** inactive: 99.3%

**Q.** `FC(F)(F)c1cc(N2CCN(Cc3ccccc3)CC2)c2ccccc2n1` was tested. Which binding response (% of control) did it give?
**A.** inconclusive: 107%

**Q.** How did the binding response (% of control) turn out when `FC(F)(F)C(F)(F)c1nnc2ccc(-n3ccnc3)nn12` was run?
**A.** inactive: 99.7%

**Q.** How did the binding response (% of control) turn out when `COc1ccc(N2CC(O)=C(c3nc(-c4ccccc4)cs3)C2=N)cc1` was run?
**A.** inconclusive: 119%

**Q.** For `Cc1ccc(C(=O)NCc2ccc3c(c2)CCO3)cc1C`, which binding response (% of control) is on record?
**A.** inconclusive: 101%

**Q.** Which binding response (% of control) does the source give for `CCN(CC)CCC(=O)Nc1cccc2c1C(=O)c1ccccc1C2=O` here?
**A.** inconclusive: -465%

**Q.** `COc1cc(/C=N/N(C)S(=O)(=O)c2ccc(C)cc2)cc([N+](=O)[O-])c1O` was tested. Which binding response (% of control) did it give?
**A.** inconclusive: 87.5%

**Q.** How did the binding response (% of control) turn out when `CCOc1ccccc1NC(=O)CCN1CCN(S(=O)(=O)c2ccc(OC)cc2)CC1` was run?
**A.** inactive: 100%

**Q.** For `Cc1cccc(N2CCN(Cc3nc(-c4cccc(Oc5ccccc5)c4)oc3C)CC2)n1`, which binding response (% of control) is on record?
**A.** inactive: 104%

**Q.** For `CCOC(=O)C[N+]1(C)CCN(C(C)=O)CC1`, which binding response (% of control) is on record?
**A.** inactive: 99.6%

Reference: PubChem BioAssay AID1439 (NMMLSC, 2008)
